{"source": "PubChem BioAssay AID686943, Drosophila RNAi Screening Center – 2013", "assay": "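Search across the genome for regulators of signalling from receptor tyrosine kinase to ERK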 (primary screen)", "cell system": "Drosophila S2R+ haemocyte-like cells expressing YFP-tagged ERK (Rolled)", "reagent": "long dsRNA against Drosophila genes", "conditions": "insulin stimulation versus unstimulated cells; dose and duration not given", "detection": "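Antibody staining for doubly phosphorylated ERK divided by ERK-YFP signal, as plate z-scores, in insulin-treated and untreated cells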", "scale": "replicate 1, z-score of dpERK with insulin: higher = more active ERK per ERK-YFP after insulin", "note": "The screen tested about 23,000 reagents; shown is an unselected part of those that have a named target and a result. 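Extra replicates exist only for a retested subset of genes; insulin dose and duration not given; both raised and lowered dpERK matter.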 Reagents against one gene are numbered here. Further read-outs or replicates are left out here. The record does not give: the amount of reagent, the time to read-out."}
{"gene": "CG31189", "dsRNA no.": 1, "replicate 1, z-score of dpERK with insulin": -0.32}
{"gene": "pico", "dsRNA no.": 1, "replicate 1, z-score of dpERK with insulin": -0.4}
{"gene": "ND-23", "dsRNA no.": 1, "replicate 1, z-score of dpERK with insulin": 0.15}
{"gene": "lncRNA:CR43270", "dsRNA no.": 1, "replicate 1, z-score of dpERK with insulin": -0.39}
{"gene": "nAChRalpha7", "dsRNA no.": 1, "replicate 1, z-score of dpERK with insulin": 1.82}
{"gene": "nAChRalpha7", "dsRNA no.": 2, "replicate 1, z-score of dpERK with insulin": 0.54}
{"gene": "CG18135", "dsRNA no.": 1, "replicate 1, z-score of dpERK with insulin": 0.41}
{"gene": "CG30196", "dsRNA no.": 1, "replicate 1, z-score of dpERK with insulin": 0.22}
{"gene": "mh", "dsRNA no.": 1, "replicate 1, z-score of dpERK with insulin": -0.75}
{"gene": "Ir60d", "dsRNA no.": 1, "replicate 1, z-score of dpERK with insulin": 0.58}
{"gene": "msd1", "dsRNA no.": 1, "replicate 1, z-score of dpERK with insulin": 0.08}
{"gene": "Su(var)2-10", "dsRNA no.": 1, "replicate 1, z-score of dpERK with insulin": -0.6}
{"gene": "cbc", "dsRNA no.": 1, "replicate 1, z-score of dpERK with insulin": 0.62}
{"gene": "CG14570", "dsRNA no.": 1, "replicate 1, z-score of dpERK with insulin": 0.21}
{"gene": "RpS10b", "dsRNA no.": 1, "replicate 1, z-score of dpERK with insulin": -0.19}
{"gene": "gskt", "dsRNA no.": 1, "replicate 1, z-score of dpERK with insulin": 0.67}
{"gene": "Klp98A", "dsRNA no.": 1, "replicate 1, z-score of dpERK with insulin": 0.43}
{"gene": "Klp98A", "dsRNA no.": 2, "replicate 1, z-score of dpERK with insulin": 1}
{"gene": "Rrp46", "dsRNA no.": 1, "replicate 1, z-score of dpERK with insulin": 0.06}
{"gene": "CG16782", "dsRNA no.": 1, "replicate 1, z-score of dpERK with insulin": 1.23}
{"gene": "CG14744", "dsRNA no.": 1, "replicate 1, z-score of dpERK with insulin": 0.19}

Entries listed so far whose gene name begins with C or c (7):
{"gene": "CG31189", "dsRNA no.": 1, "replicate 1, z-score of dpERK with insulin": -0.32}
{"gene": "CG18135", "dsRNA no.": 1, "replicate 1, z-score of dpERK with insulin": 0.41}
{"gene": "CG30196", "dsRNA no.": 1, "replicate 1, z-score of dpERK with insulin": 0.22}
{"gene": "cbc", "dsRNA no.": 1, "replicate 1, z-score of dpERK with insulin": 0.62}
{"gene": "CG14570", "dsRNA no.": 1, "replicate 1, z-score of dpERK with insulin": 0.21}
{"gene": "CG16782", "dsRNA no.": 1, "replicate 1, z-score of dpERK with insulin": 1.23}
{"gene": "CG14744", "dsRNA no.": 1, "replicate 1, z-score of dpERK with insulin": 0.19}
